In patent publication US12011431B2, “Pharmaceutical composition for preventing or treating sensorineural hearing loss, containing forskolin and retinoic acid as active ingredients” (AJOU UNIVERSITY INDUSTRY-ACADEMIC COOPERATION FOUNDATION, priority 2018, dated 2024):
For at least one compound, name, drawing or mass did not settle the structure.

Experiments:
[1] = test system: lung cancer cell line (A549) xenograft; experiment: Cisplatin anticancer effect in tumor-induced animal model (tumor size); format: in vivo, Balb/c/nu/nu mice; conditions: forskolin combined with cisplatin
Procedure: In order to exclude mice having congenitally abnormal hearing, a preliminary hearing test was performed on all mice before the experiment. An auditory brainstem response (ABR) test was conducted on the immunodeficient Balb/c/nu/nu mice and then a lung cancer cell line (A549) was xenografted subcutaneously into the mice to produce a tumor-induced animal model (FIG. 1). After tumor formation in the tumor-induced ototoxic hearing loss animal model of Example 1, mice were randomly classified, and then (1) physiological saline (vehicle), (2) forskolin, (3) cisplatin or (4) a combination of cisplatin and forskolin was administered intraperitoneally to the mice for 5 days, and then the mice were reared for 7 days. The average tumor volume and body weight of each group were measured every week (FIGS. 4A and 4B). In addition, the weight of each of the extracted tumor and kidney was also measured (FIG. 4E).

HEI-OCl cells = experiment: Inhibition of cisplatin-induced apoptosis in auditory cell line (calcein AM, cleaved PARP and caspase 3); format: cell-based; conditions: cisplatin 25 μM; forskolin 20 μM; retinoic acid 50 μM
Procedure: An auditory cell line expressing auditory genes (HEI-OCl; House-Ear Institute-organ of Corti 1) was used, and the HEI-OCl cells were incubated in DMEM medium (Dulbecco's modified Eagle's Medium) containing a high concentration of glutamine, supplemented with 10% fetal bovine serum (FBS) and 25 U/ml of interferon gamma at 33° C. and 10% CO2. The cells were treated with cisplatin at a concentration of 25 μM, and the effects of forskolin and retinoic acid were analyzed under conditions in which about 40 to 50% of cells were killed by cisplatin ototoxicity. In order to analyze the effects of forskolin and retinoic acid on ototoxicity, experimental groups were classified into (1) normal, (2) forskolin, (3) retinoic acid, (4) cisplatin, (5) cisplatin+forskolin, (6) cisplatin+retinoic acid, (7) cisplatin+forskolin+retinoic acid. Cisplatin was administered in an amount of 25 μM, forskolin was administered in an amount of 20 μM, and retinoic acid was administered in an amount of 50 μM. Then, viable cells were observed using calcein AM, a fluorescent stain applicable to live cells, and cleaved PARP and caspase 3, as apoptosis markers, were identified at the protein level.

[2] = test system: conventional ototoxic hearing loss animal model; experiment: Auditory brainstem response (ABR) test in conventional ototoxic hearing loss animal model; format: in vivo, SD (Sprague-Dawley) rats; conditions: forskolin 25 μM in 20 μL intratympanic, before and after cisplatin 16 mg/kg i.p.; after 5 days; versus DMSO-injected ear

Q: Which results are given for `C=C[C@@]1(C)CC(=O)[C@]2(O)[C@@]3(C)[C@@H](O)CCC(C)(C)[C@@H]3[C@H](O)[C@H](OC(C)=O)[C@@]2(C)O1` [forskolin]?
A: effect on the anticancer effect of cisplatin [1]: having no effect on the anticancer effect of cisplatin; cell viability / apoptosis (calcein staining, cleaved PARP and caspase 3) (HEI-OCl cells): effect of increasing cell viability; hearing threshold (ABR) [2]: decrease in hearing threshold

Q: With `CC1=C(/C=C/C(C)=C/C=C/C(C)=C/C(=O)O)C(C)(C)CCC1` [retinoic acid] as the molecule, how does the “cell viability / apoptosis (calcein staining, cleaved PARP and caspase 3)” value (HEI-OCl cells) read?
A: effect of increasing cell viability
